Measured values taken from article PMC4333404, “Bcl2 inhibits recruitment of Mre11 complex to DNA double-strand breaks in response to high-linear energy transfer radiation”.

Target: T1, Mre11 (UniProt P49959)
T1 sequence (looked up, limits assumed): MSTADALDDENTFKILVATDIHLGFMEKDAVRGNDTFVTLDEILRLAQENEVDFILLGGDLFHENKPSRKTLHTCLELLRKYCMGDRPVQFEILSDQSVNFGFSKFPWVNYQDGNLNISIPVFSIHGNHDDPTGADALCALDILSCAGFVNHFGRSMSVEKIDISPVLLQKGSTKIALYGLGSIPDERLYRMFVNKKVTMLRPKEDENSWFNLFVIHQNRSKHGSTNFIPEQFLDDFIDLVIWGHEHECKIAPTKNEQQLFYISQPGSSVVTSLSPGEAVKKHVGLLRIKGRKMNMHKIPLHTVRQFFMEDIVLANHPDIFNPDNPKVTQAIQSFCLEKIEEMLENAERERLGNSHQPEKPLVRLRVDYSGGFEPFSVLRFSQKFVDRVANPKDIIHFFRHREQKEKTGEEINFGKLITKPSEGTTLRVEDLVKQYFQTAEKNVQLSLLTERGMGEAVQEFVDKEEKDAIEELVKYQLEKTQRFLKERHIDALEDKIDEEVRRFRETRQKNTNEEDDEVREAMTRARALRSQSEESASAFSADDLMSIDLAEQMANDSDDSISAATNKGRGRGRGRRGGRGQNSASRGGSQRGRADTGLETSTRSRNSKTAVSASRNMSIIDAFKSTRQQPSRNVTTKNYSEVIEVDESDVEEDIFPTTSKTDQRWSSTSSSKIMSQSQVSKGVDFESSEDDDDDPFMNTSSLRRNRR
Assay: EMSA
Conditions: plus increasing WT Bcl2 (dose-dependent inhibition), 10 nM Mre11, 1 mM Mg acetate, EMSA: 25 mM MOPS pH 7.0, 60 mM KCl, 0.2% Tween, 2 mM DTT, 1 mM Mg(CH3COO)2, 37 C 15 min, 10 pM DNA, 5% native PAGE in TBE at 4 C, recombinant protein, protein details: Flag, label: 5'-32P on TP423

CTGCAGGGTTTTTGTTCCAGTCTGTAGCACTGTGTAAGACAGGCCAGATC / CACAGTGCTACAGACTGGAACAAAAACCCTGCAGTACTCTACTCATCTC [TP423/TP424 3' overhanging duplex]
binding result: binds more weakly

The exact form of at least one protein or probe is not confirmed. A weaker result is weaker than the reference pair of the same experiment. Tags and fusion partners may be left off the protein sequences shown.
